Measured data: PubChem BioAssay AID652243 (Drosophila RNAi Screening Center, 2013)

Aim: 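Fly regulators of androgen-dependent reporter output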 (primary screen)
Cell system: Drosophila S2R+ cells
Reagent: long dsRNA against Drosophila genes
Time to read-out: 72 h (48 h, then 24 h hormone)
Challenge: synthetic androgen R1881 at 10 nM for 24 h
Detection: 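Firefly light from an androgen-responsive reporter and Renilla control light per well, raw and unnormalised, for each of two replicates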
Reading the numbers: firefly reporter light: higher = more light from androgen-responsive reporter; Renilla control light: higher = more constitutive control signal (cell number, transfection)
Hit rule: 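Across duplicate plates, a knock-down whose log firefly/Renilla ratio shifted a set fold down or up from the GFP/LacZ control mean was a hit; the downward cut appears as both 1.5 and 3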
Meaning of the calls: active = hit: reporter lowered or raised; inactive = no hit
In all, the deposit lists about 24,000 reagents; this is an unselected part of those that have a named target and a result. Over the whole deposit, 246 (1%) are marked active. 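Plates not normalised; calls are printed but the firefly/Renilla ratio behind them is not deposited; fold cut for lowering reported inconsistently.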 Raw values vary from plate to plate and are shown uncorrected. A number with no mark means an inactive call. Reagents against one gene are numbered here. The record does not give: the amount of reagent.

| target gene | reagent no. | firefly reporter light, replicate 1 | firefly reporter light, replicate 2 | Renilla control light, replicate 1 | Renilla control light, replicate 2 |
| --- | --- | --- | --- | --- | --- |
| Nup133 | 1 | 51121 | 81006 | 6.78e5 | 8.55e5 |
| lncRNA:cherub | 1 | 5.95e5 | 6.17e5 | 1.31e6 | 1.29e6 |
| lncRNA:cherub | 2 | 5.05e5 | 6.40e5 | 1.55e6 | 1.64e6 |
| lncRNA:cherub | 3 | 7.49e5 | 6.58e5 | 1.46e6 | 1.01e6 |
| Mob4 | 1 | 7.00e5 | 7.43e5 | 1.39e6 | 1.31e6 |
| Mob4 | 2 | 3.78e5 | 4.11e5 | 8.52e5 | 8.52e5 |
| SmD2 | 1 | 47068 | 28290 | 2.38e5 | 3.27e5 |
| SmD2 | 2 | 7.04e5 | 4.66e5 | 1.83e6 | 1.43e6 |
| Cyp4ae1 | 1 | 1.00e5 | 28360 | 4.86e5 | 4.33e5 |
| Cyp4ae1 | 2 | 4.58e5 | 4.66e5 | 7.19e5 | 7.58e5 |
| TwdlM | 1 | 3.24e5 | 2.57e5 | 2.53e6 | 2.55e6 |
| Xbp1 | 1 | 4.23e5 | 4.51e5 | 3.93e6 | 4.37e6 |
| Xbp1 | 2 | 6.35e5 | 6.93e5 | 1.80e6 | 2.86e6 |
| CG33267 | 1 | 3.65e5 | 2.86e5 | 3.05e5 | 1.72e5 |
| CG12017 | 1 | 1.27e5 | 1.11e5 | 1.58e6 | 1.64e6 |
| CG12017 | 2 | 3.45e5 | 3.17e5 | 7.45e5 | 8.63e5 |
| CG14881 | 1 | 95170 | 1.29e5 | 1.44e6 | 1.95e6 |
| CG14881 | 2 | 2.52e5 | 4.08e5 | 8.92e5 | 7.71e5 |
| CG10809 | 1 | 2.93e5 | 2.00e5 | 2.74e6 | 2.34e6 |
| CG10809 | 2 | 3.11e5 (active) | 2.43e5 | 1.69e6 | 9.52e5 |
| CG11106 | 1 | 5.49e5 | 4.59e5 | 3.78e6 | 2.83e6 |
| CG16753 | 1 | 6.13e5 | 9.47e5 | 1.48e6 | 1.72e6 |
| CG14218 | 1 | 3.50e5 | 3.30e5 | 3.08e6 | 2.90e6 |
| CG14218 | 2 | 7.53e5 | 7.75e5 | 1.34e6 | 1.37e6 |

In a second layout: 2 of the entries above.
target gene | reagent no. | firefly reporter light, replicate 1 | firefly reporter light, replicate 2 | Renilla control light, replicate 1 | Renilla control light, replicate 2
lncRNA:cherub | 1 | 5.95e5 | 6.17e5 | 1.31e6 | 1.29e6
lncRNA:cherub | 2 | 5.05e5 | 6.40e5 | 1.55e6 | 1.64e6
